# Laboratory results reported in article PMC9365700, “Architecture and self-assembly of the jumbo bacteriophage nuclear shell” (Nature, 2022).
# These are yes or no findings as the source states them, for the method shown. Some entries that bind do so weakly or less than the wild type.
# How the values were obtained:
# [1] = biological target: 201phi2-1 chimallin ΔNTS (Δ1–64; residues 65–631) (bacteriophage 201phi2-1) (UniProt B3FIW8); assay: SEC-MALS; 100 μl of protein at 2 mg ml^-1 on Superose 6 Increase 10/300 GL in buffer B (20 mM Tris pH 7.5, 250 mM NaCl, 2 mM β-mercaptoethanol); both purified
# [2] = biological target: 201phi2-1 chimallin ΔCTS1+2 (Δ583–631; residues 1–582) (bacteriophage 201phi2-1) (UniProt B3FIW8); assay: as above
# [3] = biological target: 201phi2-1 chimallin (gp105), phage-encoded, in the nuclear shell of infected cells (bacteriophage 201phi2-1) (UniProt B3FIW8); assay: cryo-EM structure; cryoFIB-ET and subtomogram averaging of the phage nuclear shell in infected cells (201phi2-1 in P. chlororaphis, 50–60 mpi; Goslar in E. coli APEC 2248, about 30 mpi)
# [4] = biological target: Goslar chimallin (gp189), phage-encoded, in the nuclear shell of infected cells (bacteriophage Goslar); assay: as above
molecule,measurement,setting,value
201phi2-1 chimallin ΔNTS (Δ1–64; residues 65–631) (from UniProt B3FIW8 65-631) (domain or fragment),binding,[1],no binding (tested: 2 mg ml^-1)
201phi2-1 chimallin ΔCTS1+2 (Δ583–631; residues 1–582) (from UniProt B3FIW8 1-582) (domain or fragment),binding,[2],no binding (tested: 2 mg ml^-1)
"201phi2-1 chimallin (gp105), full length, recombinant (natural protein, bacteriophage 201phi2-1, UniProt B3FIW8 1-631, looked up, Cloned in UC Berkeley Macrolab vector 2-BT (Addgene #29666) with a TEV-cleavable His6 tag; tag removed before SEC; also called ChmA; FL; not shown: His6, N-terminal, cleaved) MIRDTATNTTQTQAAPQQAPAQQFTQAPQEKPMQSTQSQPTPSYAGTGGINSQFTRSGNVQGGDARASEALTVFTRLKEQAVAQQDLADDFSILRFDRDQHQVGWSSLVIAKQISLNGQPVIAVRPLILPNNSIELPKRKTNIVNGMQTDVIESDIDVGTVFSAQYFNRLSTYVQNTLGKPGAKVVLAGPFPIPADLVLKDSELQLRNLLIKSVNACDDILALHSGERPFTIAGLKGQQGETLAAKVDIRTQPLHDTVGNPIRADIVVTTQRVRRNGQQENEFYETDVKLNQVAMFTNLERTPQAQAQTLFPNQQQVATPAPWVASVVITDVRNADGIQANTPEMYWFALSNAFRSTHGHAWARPFLPMTGVAKDMKDIGALGWMSALRNRIDTKAANFDDAQFGQLMLSQVQPNPVFQIDLNRMGETAQMDSLQLDAAGGPNAQKAAATIIRQINNLGGGGFERFFDHTTQPILERTGQVIDLGNWFDGDEKRDRRDLDNLAALNAAEGNENEFWGFYGAQLNPNLHPDLRNRQSRNYDRQYLGSTVTYTGKAERCTYNAKFIEALDRYLAEAGLQITMDNTSVLNSGQRFMGNSVIGNNMVSGQAQVHSAYAGTQGFNTQYQTGPSSFY",binding,[3],binds
"Goslar chimallin (gp189), full length, recombinant (natural protein, bacteriophage Goslar, UniProt A0A482GDX1 1-631, looked up, Chimallin (gp189) of E. coli jumbo bacteriophage Goslar, 631 amino acids, NCBI YP_009820873.1; Cloned in UC Berkeley Macrolab vector 2-BT (Addgene #29666) with a TEV-cleavable His6 tag; tag removed before SEC; not shown: His6, N-terminal, cleaved) MGLDVRNNGNDNVEIRAAETRTAQRADEALETAADFAGQPKVTHTMRTINRTLSRRISRNTGSEQVLNLRRLMEKYLEDTRFKDDFIFVAVDPNQYSVPYPTLVVMSGAKVGDHNHFFGYVLPLVAGLAPLPRREEQGPHGNILVPRTWVDNLNGTFINEVMAAMYAAIGGKSNGTARIAGLAVVTNEITAESAHLATTLLSAADNAIQTAIEIRLGDKLGLPQFNLGMMASDQPISSVQYNTSGMQDSDIVGNPVRSDITVTISNRIRQAMSDYDSQQRLVATTGYIDLTYSPQNPTFNQGPVLVNGYPVPPTVQYQPRYVMTSAYPLELDAFTPNTFVLGLIGTIATLNSGMAWAQSLISNAARGIGPHNPGALAMVLDPEVTAPLDLSTQTNEQIYKFLQQVLYPSLLISIDVPEEGEYSWLLRMIPAAEKIYTGKVEGEVREISEGYKALYRAFDDVTLGCFSKKYQYGLPLVYATGNRIPLGHYNHQDGHRHDIRDMDDLYMMNITNPDTVEAWEDSFDRTDMTMSQRVVARHEIIDRVLSGSWEQTGWAMRYDFDPLALQALIEAAADAGFTIRPENIQHLAGTAVRGNMAARARGLGNISGNIYARSDRPNVGVNNMGGAFNLF",binding,[4],binds
